PubChem BioAssay AID493246, Drosophila RNAi Screening Center – 2011
The deposit covers about 21,000 reagents; this is an unselected part of those with a known target gene and a result. Of all reagents, 429 (2%) are marked active. 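Values are raw and not normalised between plates; calls rest on per-plate z-scores that were not deposited.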 Unmarked entries are inactive. A plus sign joins genes that one reagent is predicted to hit. The record does not give: the amount of reagent, the time to read-out.

Purpose: 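Identify essential fly genes by loss of cell viability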 (primary screen)
Cells: Drosophila Kc and S2R+ cells
Reagents: long dsRNA against Drosophila genes
Read-out: 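Raw, unnormalised count of remaining cells in each well; per-plate z-scores of cell number underlie the calls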
Direction: Kc cell number and S2R+ cell number: higher = more cells remaining
Call rule: 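Active when the per-plate z-score of cell number is 3 or more in the direction of fewer cells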

Target gene | DRSC id | Kc cell number, rep 1 | Kc cell number, rep 2 | S2R+ cell number, rep 1 | S2R+ cell number, rep 2
TpnC4 (Troponin C isoform 4) | DRSC04856 | 1.73e6 | 1.82e6 | 1.50e6 | 1.50e6
snRNA:U1:95Cc (small nuclear RNA U1 at 95C c) | DRSC13640 | 1.44e6 (active) | 1.45e6 | 6.20e5 | 6.70e5
spas (spastin) | DRSC15929 | 1.68e6 | 1.74e6 | 1.34e6 | 1.45e6
cGlr2 (cGAS-like receptor 2) | DRSC04017 | 1.36e6 (active) | 1.45e6 | 6.47e5 | 7.93e5
CG6701 | DRSC07007 | 1.57e6 | 1.68e6 | 1.08e6 | 1.06e6
Pkn (Protein kinase N) | DRSC06809 | 9.68e5 | 1.13e6 | 9.63e5 | 9.00e5
Pkn (Protein kinase N) | DRSC06810 | 1.54e6 | 1.74e6 | 1.28e6 | 1.36e6
eIF2alpha (eukaryotic translation initiation factor 2 subunit alpha) | DRSC20327 | 1.25e6 | 1.43e6 | 9.00e5 | 1.05e6
CG14851 | DRSC14975 | 1.46e6 | 1.57e6 | 1.18e6 | 1.34e6
CG42715 (retired record) | DRSC05499 | 1.73e6 | 1.83e6 | 1.02e6 | 1.28e6
Osi14 (Osiris 14) | DRSC12368 | 1.58e6 | 1.80e6 | 1.25e6 | 1.46e6
CG18675 | DRSC08536 | 1.56e6 | 1.47e6 | 1.07e6 | 1.19e6
fmt (fiery mountain) | DRSC09717 | 1.32e6 | 1.49e6 | 1.11e6 | 1.01e6

Continued; the last 2 above are carried over.
Target gene | DRSC id | Kc cell number, rep 1 | Kc cell number, rep 2 | S2R+ cell number, rep 1 | S2R+ cell number, rep 2
CG18675 | DRSC08536 | 1.56e6 | 1.47e6 | 1.07e6 | 1.19e6
fmt (fiery mountain) | DRSC09717 | 1.32e6 | 1.49e6 | 1.11e6 | 1.01e6
CG34126 | DRSC02726 | 1.59e6 | 1.59e6 | 1.21e6 | 1.36e6
Xpac (Xeroderma pigmentosum group A-like) | DRSC18730 | 1.64e6 | 1.64e6 | 1.06e6 | 1.20e6
CG15803 | DRSC15121 | 1.42e6 | 1.37e6 | 1.12e6 | 1.36e6
mei-217 + mei-218 | DRSC20349 | 1.69e6 | 1.71e6 | 1.16e6 | 1.28e6
Unr (Upstream of N-ras) | DRSC10761 | 1.38e6 | 1.43e6 | 1.21e6 | 1.16e6
CG9297 | DRSC16469 | 1.62e6 | 1.65e6 | 1.33e6 | 1.33e6
CG6726 | DRSC16101 | 1.44e6 | 1.44e6 | 9.86e5 | 1.07e6
Pld3 (Phospholipase D family member 3) | DRSC03167 | 1.31e6 | 1.38e6 | 1.05e6 | 1.09e6
naz (nazgul) | DRSC14790 | 1.22e6 | 1.13e6 | 1.10e6 | 1.22e6
naz (nazgul) | DRSC16199 | 1.29e6 | 1.26e6 | 1.14e6 | 1.25e6
CG1896 | DRSC15397 | 4.89e5 | – | 7.35e5 | –
Aven (Apoptosis and caspase activation inhibitor) | DRSC19693 | 1.66e6 | 1.51e6 | 9.95e5 | 1.18e6
tef (teflon) | DRSC07301 | 1.47e6 | 1.47e6 | 1.33e6 | 1.30e6
mAChR-B (muscarinic Acetylcholine Receptor, B-type) | DRSC16345 | 1.51e6 | 1.55e6 | 1.25e6 | 1.39e6
DIP-eta (Dpr-interacting protein eta) | DRSC02342 | 1.57e6 | 1.46e6 | 1.17e6 | 1.31e6
Su(var)2-10 (Suppressor of variegation 2-10) | DRSC07721 | 1.23e6 | 1.22e6 | 1.13e6 | 1.04e6
cue (cueball) | DRSC08248 | 1.57e6 | 1.47e6 | 1.22e6 | 1.10e6
CG11362 | DRSC04106 | 1.57e6 | 1.67e6 | 1.22e6 | 1.42e6
Fdh (Formaldehyde dehydrogenase) | DRSC16670 | 1.64e6 | 1.68e6 | 1.34e6 | 1.56e6
TkR86C (Tachykinin-like receptor at 86C) | DRSC16880 | 1.48e6 | 1.54e6 | 1.35e6 | 1.48e6
Esp (Epidermal stripes and patches) | DRSC16664 | 1.58e6 | 1.54e6 | 1.03e6 | 1.13e6
CG6424 | DRSC05936 | 1.35e6 | 1.37e6 | 1.12e6 | 1.18e6
Rcd4 (Reduction in Cnn dots 4) | DRSC02597 | 1.55e6 | 1.60e6 | 1.32e6 | 1.42e6
CG13692 | DRSC00361 | 1.52e6 | 1.58e6 | 1.01e6 | 1.15e6
CG14989 | DRSC08448 | 1.55e6 | 1.58e6 | 1.28e6 | 1.11e6
tup (tailup) | DRSC03627 | 1.41e6 | 1.45e6 | 1.36e6 | 1.32e6
ast (asteroid) | DRSC00803 | 1.23e6 | 1.59e6 | 1.08e6 | 1.18e6
